{"source": "PubChem BioAssay AID662", "about": "(National Center for Advancing Translational Sciences (NCATS), 2007)", "note": "The other results are listed elsewhere or left out. These are further read-outs of the screen, such as a control signal, another cell line or another target. No call is given for them. Most of these compounds were active or inconclusive in the main read-out, so they are no random draw. Words in brackets tell the shape of the fitted curve; partial curves, single points and poor fits give uncertain potencies.", "data": [{"assay": "Cell signaling CRE-BLA (Fsk stim)", "settings": "CHO CRE-bla reporter (cAMP response element driving beta-lactamase), forskolin EC10, beta-lactamase ratio; measured here: 460 nm blue channel", "method_in_brief": "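CRE-bla CHO reporter cells treated with compound titration plus EC10 NKH 477 (water-soluble forskolin), incubated 3 h at 37 °C; CCF4 loading 2 h at room temperature, 460/530 nm emission ratio read, AC50 values derived for positive or negative modulators.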", "values": [{"smiles": "COc1cc2c(cc1C(F)(F)F)N(C(=O)Nc1cc(F)cc(-c3cccnc3)c1)CC2", "AC50": "0.794 µM [rising, full curve, poor fit]"}, {"smiles": "Cc1cnc(CNc2ncnc3ccc(-c4ccccc4CN(C)C)cc23)cn1", "AC50": "3.16 µM [falling, partial curve, poor fit]"}, {"smiles": "COc1ccc(-c2nc3cnc(N4CCNCC4)nc3n(CCC#N)c2=O)cc1", "AC50": "7.94 µM [rising, partial curve]"}, {"smiles": "N#CCSc1nc2cc(C(=O)N3CCC(C(N)=O)CC3)ccc2c2nc3ccccc3n12", "AC50": "1.26 µM [rising, full curve]"}, {"smiles": "Cc1cc(C(=O)CSc2nnnn2C)c(C)n1-c1ccc2c(c1)OCCO2", "AC50": "0.0158 µM [falling, full curve, poor fit]"}, {"smiles": "COc1ccc(C)cc1S(=O)(=O)Nc1cccc(Cl)c1", "AC50": "0.00398 µM [falling, full curve, poor fit]"}, {"smiles": "N=c1n(CCN2CCOCC2)c2ccccc2n1Cc1ccccc1Br", "AC50": "2.51 µM [falling, partial curve]"}, {"smiles": "Cc1cc(C)c2cc3c(ccn3C3OC[C@H](O)[C@H](O)[C@H]3O)cc2n1", "note": "(some centres not stated)", "AC50": "6.31 µM [falling, partial curve]"}, {"smiles": "Cn1cc(Br)c(C(=O)NC2CCCCC2)n1", "AC50": "5.01 µM [falling, single point]"}, {"smiles": "CCc1nc2c(cnn2-c2ccc(Cl)cc2)c(=O)n1-c1ccc2c(c1)OCCO2", "AC50": "0.631 µM [falling, partial curve, poor fit]"}, {"smiles": "CC12CN(C(=O)c3ccccc3)C3(C#N)CC1CCC23C", "note": "(configuration not stated)", "AC50": "0.398 µM [rising, full curve, poor fit]"}, {"smiles": "Cc1cc(Oc2ccc(-c3ccccc3)cc2)n2ncnc2n1", "AC50": "0.398 µM [falling, full curve, poor fit]"}, {"smiles": "O=C(Cn1cccc1C(=O)c1ccccc1)NCCN1CCOCC1", "AC50": "0.0631 µM [falling, partial curve, poor fit]"}, {"smiles": "c1ccc2c(c1)CCCN2Cc1nnnn1CC1CCCO1", "note": "(configuration not stated)", "AC50": "0.01 µM [falling, full curve, poor fit]"}, {"smiles": "CCN1C(=O)c2ccc(C(=O)NCc3ccccc3)cc2C1=O", "AC50": "12.6 µM [rising, partial curve]"}, {"smiles": "CNc1ncnc2ccc(-c3ccccc3C#N)cc12", "AC50": "10 µM [rising, partial curve]"}, {"smiles": "CCCCOC(=O)C(C)Nc1n[nH]c(=O)[nH]c1=O", "note": "(configuration not stated)", "AC50": "15.8 µM [falling, partial curve]"}, {"smiles": "CC(C)(C)c1cc(C(c2cccnc2)N2CCN(CCO)CC2)cc(C(C)(C)C)c1O", "note": "(configuration not stated)", "AC50": "3.16 µM [falling, single point]"}, {"smiles": "Cn1c(C(=O)NCCCN2CCCC2=O)cc2c(=O)n3ccccc3nc21", "AC50": "2 µM [rising, partial curve]"}, {"smiles": "COC(=O)c1sc(N)c(C(=O)OC)c1COC(=O)C1CC(=O)N(Cc2ccco2)C1", "note": "(configuration not stated)", "AC50": "12.6 µM [rising, partial curve]"}, {"smiles": "COc1ccc2nc(SCC(=O)N(C)C3CCCCC3)c(C#N)cc2c1", "AC50": "10 µM [rising, partial curve]"}, {"smiles": "COc1ccc(OC)c(N2C(=O)C(Cl)=C(N3CCCCC3)C2=O)c1", "AC50": "5.01 µM [falling, partial curve]"}, {"smiles": "COc1ccc(CCNC(=O)c2ccc3nc(-c4ccco4)c(-c4ccco4)nc3c2)cc1OC", "AC50": "2.51 µM [rising, single point]"}, {"smiles": "Cc1cc(=O)n2nc(N3CCCC(C(=O)NCc4ccc5c(c4)OCO5)C3)sc2n1", "note": "(configuration not stated)", "AC50": "25.1 µM [rising, partial curve, poor fit]"}, {"smiles": "O=C1c2cccc3cccc(c23)C(=O)N1c1cccnc1", "AC50": "25.1 µM [rising, single point]"}, {"smiles": "COc1cc(SC)ccc1C(=O)OC1CCOC1=O", "note": "(configuration not stated)", "AC50": "25.1 µM [falling, single point]"}, {"smiles": "Cc1cc(C(F)(F)F)nc(NCc2ccc(F)cc2)n1", "AC50": "25.1 µM [rising, single point]"}, {"smiles": "COc1ccc(Cl)cc1NC(=O)CN1CCC(n2nnc3ccccc32)CC1", "AC50": "3.98 µM [rising, partial curve]"}, {"smiles": "COc1ccc(NC(=O)Cn2nnc(C(=O)NCc3ccccc3OC)c2N)cc1Cl", "AC50": "10 µM [falling, partial curve]"}, {"smiles": "COc1cc(OC)cc(C(=O)Nc2cc(NC(=O)c3ccco3)ccc2OC)c1", "AC50": "15.8 µM [rising, single point]"}, {"smiles": "CCN(CC)CCNC(=O)c1cc2c(-c3ccc(Cl)cc3)nn(C)c2s1", "AC50": "15.8 µM [rising, single point]"}, {"smiles": "Cc1ccc(C)c(N2CCN(C(=O)c3ccc(NS(=O)(=O)c4c(C)noc4C)cc3)CC2)c1", "AC50": "12.6 µM [rising, partial curve]"}, {"smiles": "COC(=O)c1[nH]c2cc(C)ccc2c1NC(=O)CN1CCc2cc(OC)c(OC)cc2C1", "AC50": "0.501 µM [rising, full curve, poor fit]"}, {"smiles": "Cc1ccc(C)c(C(=O)CC2(O)C(=O)N(C)c3ccccc32)c1", "note": "(configuration not stated)", "AC50": "0.00316 µM [falling, full curve, poor fit]"}, {"smiles": "CCn1c(SC/C=C/c2ccccc2)nnc1-c1cnccn1", "AC50": "5.01 µM [rising, single point]"}, {"smiles": "O=C(c1cccs1)c1ccc(-c2cccs2)s1", "AC50": "10 µM [rising, partial curve]"}, {"smiles": "Cc1noc(C)c1S(=O)(=O)NCC(=O)O", "AC50": "0.0158 µM [falling, full curve, poor fit]"}, {"smiles": "COc1cccc(NC(=O)c2ccccc2-c2nc(-c3ccc(Cl)cc3)no2)c1", "AC50": "0.126 µM [falling, full curve, poor fit]"}, {"smiles": "COc1ccc2nc(Nc3ccc4c(c3)OCO4)sc2c1", "AC50": "12.6 µM [rising, single point]"}, {"smiles": "CCN(CCCNC(=O)COc1cc(=O)n(C)c2ccccc12)c1ccccc1", "AC50": "10 µM [rising, single point]"}, {"smiles": "Cc1c(N=c2c(=O)c3ccccc3c2=O)c(=O)n(-c2ccccc2)n1C", "AC50": "15.8 µM [rising, single point]"}, {"smiles": "COc1ccc(-c2nnc(CSc3nc4ccccc4c(=O)n3CC(C)C)o2)cc1OC", "AC50": "3.16 µM [rising, full curve]"}, {"smiles": "CCn1cc(C(=O)O)c(=O)c2ccc(Cc3ccccc3)nc21", "AC50": "31.6 µM [rising, single point]"}, {"smiles": "Cn1c(=O)[nH]c(=O)c2c1nc(N1CCCCCC1)n2CCSc1nc2ccccc2[nH]1", "AC50": "20 µM [rising, single point]"}, {"smiles": "CCn1c(C)csc1=NC(=O)c1ccccc1", "AC50": "0.02 µM [falling, full curve, poor fit]"}, {"smiles": "CN(C)c1ccc(-c2nc(N(C)Cc3ccco3)c3ccccc3n2)cc1", "AC50": "12.6 µM [rising, partial curve]"}, {"smiles": "O=C1CSC(c2cccc(F)c2)N1c1ccccc1F", "note": "(configuration not stated)", "AC50": "0.00794 µM [falling, full curve, poor fit]"}, {"smiles": "Cn1ccnc1C[C@@](C)(O)c1ccccc1", "AC50": "0.158 µM [rising, partial curve]"}, {"smiles": "Cc1nc(Nc2ccc3c(c2)OCCO3)c2oc3ccccc3c2n1", "AC50": "3.16 µM [rising, partial curve]"}, {"smiles": "COc1cccc(-n2nnc3c(=O)n(CC(=O)N4CCC(C)CC4)cnc32)c1", "AC50": "0.0251 µM [falling, full curve, poor fit]"}, {"smiles": "O=C(CSc1nnc2scc(-c3ccccc3)n12)N1CCN(Cc2ccccc2)CC1", "AC50": "10 µM [rising, partial curve]"}, {"smiles": "Cn1c(=O)[nH]c(=O)c2c1nc(N1CCOCC1)n2CCCSc1ncccn1", "AC50": "25.1 µM [rising, single point]"}, {"smiles": "COc1ccc(-c2nc3cncnc3n(-c3ccccc3)c2=O)cc1", "AC50": "3.16 µM [rising, full curve]"}, {"smiles": "O=C(CCN1C(=O)c2ccccc2C1=O)OCn1nnc2ccccc2c1=O", "AC50": "0.0631 µM [falling, full curve]"}, {"smiles": "O=C(Nc1nc(-c2cc3ccccc3oc2=O)cs1)c1ccco1", "AC50": "12.6 µM [rising, partial curve]"}, {"smiles": "CC(=O)N1CCc2cc(S(=O)(=O)CCC(=O)O)ccc21", "AC50": "0.0316 µM [falling, partial curve, poor fit]"}, {"smiles": "COc1ccc(C2NC(=O)NC(O)(C(F)(F)F)C2C(=O)c2ccc(C)cc2)cc1", "note": "(configuration not stated)", "AC50": "0.398 µM [rising, partial curve]"}, {"smiles": "O=C1c2cccc3c(Cl)ccc(c23)C(=O)N1O", "AC50": "12.6 µM [rising, single point]"}, {"smiles": "Cn1cnc2c1c(=O)n(Cc1ccc(F)cc1Cl)c(=O)n2C", "AC50": "12.6 µM [rising, single point]"}, {"smiles": "COc1ccc(-n2c(=O)c3ccccc3n(CC(=O)NC3CCCC3)c2=O)cc1", "AC50": "0.501 µM [falling, partial curve]"}, {"smiles": "COc1nc(NCCc2ccc(OC)c(OC)c2)nc(NC(C)(C)CO)n1", "AC50": "12.6 µM [rising, partial curve]"}, {"smiles": "COCCn1c(=O)cnc2cnc(Oc3ccc(OC)cc3)nc21", "AC50": "25.1 µM [rising, single point]"}, {"smiles": "Cc1cccc(OCCCCc2c(C)n[nH]c2C)c1C", "AC50": "12.6 µM [falling, single point]"}, {"smiles": "CCc1nc(N)c(C#N)c(-c2ccco2)c1C", "AC50": "5.01 µM [rising, partial curve]"}, {"smiles": "COc1cccc(Cn2c(=O)c(-c3cccs3)nc3cnc(Nc4ccccc4)nc32)c1", "AC50": "0.316 µM [rising, full curve]"}, {"smiles": "Cc1cc(Cl)c(S(=O)(=O)N2CCCCCC2)cc1OCC(N)=O", "AC50": "0.0158 µM [falling, full curve, poor fit]"}, {"smiles": "C=CCn1c(SCC(=O)NCC2CCCO2)nnc1C1CCCCC1", "note": "(configuration not stated)", "AC50": "0.501 µM [falling, single point]"}]}]}
